Source: the supplement of paper PMC5949888
Most values lie at the floor of the assay. Slopes are relative: functional sequences can read slightly below zero.

The substances below were run on Saccharomyces cerevisiae PS128 hsf1 delta, HSF1(1-493) fusion (assay: growth estimate (transactivation domain function in HSF1 fusion, heat-shock survival) (a.u. (slope of normalised read count over time)); higher = stronger growth at 37°C, i.e. more transactivation activity). Conditions: library: random library.
In the case of PRTLLIALLPDAPRQLMRRL, the growth estimate is reported as < -0.25. In the case of TVESSAARRHGVICTDDCLT, the growth estimate is reported as < -0.25. With QCGYGDAQLTL the growth estimate was < -0.25. With LGREVWAATTRI the growth estimate was < -0.25. In the case of WFF, the growth estimate is reported as < -0.25. RQFGESVCAQT was tested, and the growth estimate was < -0.25. In the case of SVHFQPPRYRTTVRTGQMRR, the growth estimate is reported as < -0.25. EVRPCQTHSEIDASGQLIRA was tested, and the growth estimate was < -0.25. For EVGSSFGP, the growth estimate was < -0.25. With QYCQWA the growth estimate was < -0.25. QCSRMRNHLAPRISMGTPAP was tested, and the growth estimate was < -0.25. EERRVVRSAR was tested, and the growth estimate was < -0.25. For FRGY, the growth estimate was < -0.25. For LNSAGVQPSKPVLDYHVVPG, the growth estimate was < -0.25. With IDCGSGSQPWDGWVIAVSTG the growth estimate was < -0.25. In the case of VQRGIRAYLIYQNGERPGEW, the growth estimate is reported as < -0.25. With SSLSGVPLPPNQARRTTDSE the growth estimate was < -0.25. In the case of EVKVVSRSR, the growth estimate is reported as < -0.25. With NTDIRSINYRTWLVIRCAMW the growth estimate was < -0.25. For RPKERGGCLVLPTMKRHGEK, the growth estimate was < -0.25. Substance RHPPLPRHWHRH has a growth estimate of -0.248. GSGSQGVGVLRATYRMC was tested, and the growth estimate was < -0.25. KRKVDR was tested, and the growth estimate was < -0.25. In the case of GTFVRVGCRMVGAYLRAAET, the growth estimate is reported as < -0.25. With NNVRGASLTEGFSHNFW the growth estimate was < -0.25. QDQEAGDMVP was tested, and the growth estimate was < -0.25. With KSADT the growth estimate was < -0.25. SVCLVRVREVEVVMIGILPV was tested, and the growth estimate was < -0.25. DEAGQTIVLGKKVRRRRVLE was tested, and the growth estimate was < -0.25. With GYLCNTLLGLRRYR the growth estimate was < -0.25. In the case of VLTDPARRHFGYSVRGSTLS, the growth estimate is reported as < -0.25. In the case of RGKMTTSLTLVAGVAGSCGR, the growth estimate is reported as < -0.25. In the case of YARASSVITYWGLRVPDGFG, the growth estimate is reported as < -0.25. GWREGPTSAQARRPES gave a growth estimate of -0.246. LIPWSQ was tested, and the growth estimate was < -0.25. IFGGGKHVSMLRRPTRSTDA was tested, and the growth estimate was < -0.25. In the case of LVKSAL, the growth estimate is reported as < -0.25. In the case of RYRCLGGLLTGKGVETGRDV, the growth estimate is reported as < -0.25. In the case of GGSFPGPNLDATSKRKRSAI, the growth estimate is reported as < -0.25. For THCREWN, the growth estimate was < -0.25. VGIQRKQCRRIRGLILYCAH was tested, and the growth estimate was < -0.25. For GTDQSLHVFHDMCHRASESG, the growth estimate was < -0.25. For RPIENSSYYTRAGARETAPL, the growth estimate was < -0.25. With RVKNRVRRLAVLRIGAVYKH the growth estimate was < -0.25. VSLLGLNIGTCGGRGTRRGL gave a growth estimate of -0.0557. In the case of TKGLLSFGRSAHGTLPCFSE, the growth estimate is reported as < -0.25. For FLRQKGTTDGVSVPIDTALP, the growth estimate was < -0.25. With RFMSAVRLSNFRIQIGVYIL the growth estimate was < -0.25. In the case of YVDKRAILSGNRVCRCLPGG, the growth estimate is reported as < -0.25. With LTAVAMFRGVIIMN the growth estimate was < -0.25. SGCSQCPNPGCYKTLGRICI was tested, and the growth estimate was < -0.25. LLKRLAPGRSQSDRIPGGWC was tested, and the growth estimate was < -0.25. In the case of DLGTVQIYFTGSRTRCRRSA, the growth estimate is reported as < -0.25. GSIIRRGVTMRH was tested, and the growth estimate was < -0.25. AVIPPGVSLRLSRVWHIPRK was tested, and the growth estimate was < -0.25. In the case of SIGVDL, the growth estimate is reported as < -0.25. With VTRP the growth estimate was < -0.25. In the case of ALNLDVLVKRLSYKRVFWAL, the growth estimate is reported as < -0.25. For MVCRETESGCRNVSKSASAP, the growth estimate was < -0.25. FRIPSSESRQEIELCQVRLL was tested, and the growth estimate was < -0.25. In the case of LTYTTGTTKLNPGQSSDLRT, the growth estimate is reported as < -0.25. In the case of LSTRLIKKDGVASNRRLCSR, the growth estimate is reported as < -0.25. With RIKCK the growth estimate was < -0.25. LRPDRV showed a growth estimate of -0.246. For CSVYMTGLSVPGCNSPPLGP, the growth estimate was < -0.25. For ICLLFVGPSSIRNWLL, the growth estimate was < -0.25. For EFLAELRVMRSLGIIVK, the growth estimate was < -0.25. With QELYFGVKISSNTRSTNPMG the growth estimate was < -0.25. In the case of PTASRL, the growth estimate is reported as < -0.25. For VRVLDGQRIIASLSIALPIS, the growth estimate was < -0.25. TGMYFSELSCIRRPSVLALK gave a growth estimate of -0.246. For PYLTKTSVRKPRGRRLLTTV, the growth estimate was < -0.25. In the case of SAHSSLRFQDLDNR, the growth estimate is reported as < -0.25. In the case of ILDSVAVRWNLWVAAMVSAA, the growth estimate is reported as < -0.25. RGPLSLSTCGQLLGASVGIC was tested, and the growth estimate was < -0.25. For LRHQELFGVRLTMPGGLGYS, the growth estimate was < -0.25. TGALARRFFLGERTWLLAVP was tested, and the growth estimate was < -0.25.
